The record followed here is patent US6699860B2, “Di-substituted aminomethyl-chroman derivative beta-3 adrenoreceptor agonists” (Bayer Pharmaceuticals Corporation, priority 2000, dated 2004).

The chains behind the UniProt entries cited, without tags or fusion partners.
UniProt P13945, whole entry: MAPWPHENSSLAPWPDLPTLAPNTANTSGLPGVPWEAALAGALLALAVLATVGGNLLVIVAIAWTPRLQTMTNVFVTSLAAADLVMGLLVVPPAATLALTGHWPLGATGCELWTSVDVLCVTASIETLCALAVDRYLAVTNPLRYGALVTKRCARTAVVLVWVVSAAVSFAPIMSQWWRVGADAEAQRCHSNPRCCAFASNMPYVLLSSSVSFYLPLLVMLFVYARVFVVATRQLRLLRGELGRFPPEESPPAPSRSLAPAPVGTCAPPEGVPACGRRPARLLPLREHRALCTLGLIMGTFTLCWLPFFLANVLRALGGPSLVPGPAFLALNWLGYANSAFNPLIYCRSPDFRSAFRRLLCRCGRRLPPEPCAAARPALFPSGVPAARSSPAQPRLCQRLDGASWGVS

The experiment concerns the target human beta-3-adrenergic receptor (Homo sapiens, UniProt P13945). Kind of experiment: cAMP production (SPA) in CHO cells stably expressing human beta-3-adrenergic receptor, agonist activity. To be noted: read-out: Beta-3 Agonistic Activity, EC50 values; cAMP production in CHO cells expressing human beta-3-adrenergic receptor; compounds binned (≦1 μM or >1 μM); tested form: HCl. On the technique in general: Changes in cAMP serve as a functional read-out for many G protein-coupled receptors.

Structures were worked out from names or drawings and are uncertain.

Take `CCc1ccccc1SC[C@@H](O)CNC[C@H]1CCc2cc(-c3ccc(C(=O)O)cc3)ccc2O1`: the EC50 is more than 1000 nM. To `O=C(O)c1ccc(-c2ccc3c(c2)CC[C@H](CNC[C@H](O)COc2ccccc2F)O3)cc1` [Example 253] belongs not above 1000 nM.

The term EC50 denotes the midpoint of the concentration-response curve.
